# Data reported in PubChem BioAssay (Tox21).
# The chains behind the UniProt entries cited, without tags or fusion partners.
# UniProt P37231, whole entry: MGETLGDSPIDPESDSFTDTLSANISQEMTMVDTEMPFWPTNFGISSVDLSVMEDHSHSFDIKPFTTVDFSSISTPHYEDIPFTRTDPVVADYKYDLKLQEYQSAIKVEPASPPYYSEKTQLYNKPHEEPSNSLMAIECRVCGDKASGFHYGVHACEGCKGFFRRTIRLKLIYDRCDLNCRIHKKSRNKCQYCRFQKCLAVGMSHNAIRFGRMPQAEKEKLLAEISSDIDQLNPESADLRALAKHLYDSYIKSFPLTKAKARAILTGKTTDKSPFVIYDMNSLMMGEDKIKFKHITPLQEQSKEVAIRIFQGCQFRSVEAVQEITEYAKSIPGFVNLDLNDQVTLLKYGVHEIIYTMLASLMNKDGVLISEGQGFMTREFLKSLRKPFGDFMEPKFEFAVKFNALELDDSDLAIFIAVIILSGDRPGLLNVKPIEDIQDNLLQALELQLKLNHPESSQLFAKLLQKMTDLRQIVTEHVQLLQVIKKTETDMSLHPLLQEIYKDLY
# Values joined by “and” are separate entries in the source; they are usually repeats but may differ in a detail not shown here. Equal values may be shown once. Only results without a clear call are listed here; the source files them as inconclusive. The call rests on the fitted dose curve.
# Target: Peroxisome proliferator-activated receptor gamma (Homo sapiens) (UniProt P37231)
# Assay: qHTS assay to identify small molecule antagonists of the peroxisome proliferator-activated receptor gamma (PPARg) signaling pathway (AID 743191)
# Settings: HEK293H PPARg-UAS-bla, beta-lactamase ratio, antagonist, 17 h
# Text: U.S. Tox21 Program National Center for Advancing Translational Sciences [NCATS] NIH Chemical Genomics Center [NCGC] U.S. Environmental Protection Agency [EPA] National Institutes of Environmental Health Sciences [NIEHS] National Toxicology Program [NTP] U.S. Food and Drug Administration [FDA] Tox21 Assay Overview: The peroxisome proliferator-activated receptors (PPARs) are lipid-activated transcription factors of the nuclear receptor superfamily with three distinct subtypes namely PPAR alpha, PPAR delta (also called PPAR beta) and PPAR gamma (PPARg). All these subtypes heterodimerize with Retinoid X receptor (RXR) and these heterodimers regulate transcription of various genes. PPAR-gamma receptor (glitazone receptor) is involved in the regulation of glucose and lipid metabolism. To identify the compounds that inhibit PPAR-gamma signaling, GeneBLAzer PPAR gamma UAS-bla HEK293H cell line (Invitrogen, Carlsbad, CA, USA) containing a beta-lactamase reporter gene under control of an Upstream Activator Sequence (UAS) was used to screen the Tox21 compound library.
# Tox21 Assay Protocol Summary: PPARg-bla cells were dispensed at 3000 cells/6uL/well in 1536-well black wall/clear bottom plates using a Multidrop Combi (Thermo Fisher Scientific, Waltham, MA) dispenser. After the assay plates were incubated at 37C and 5% CO2 for 5 h, 23 nL of compounds dissolved in DMSO, positive controls or DMSO only was transferred to the assay plate by a Pintool station (Kalypsys, San Diego, CA). The assay plates were incubated at 37C for 17 h. After 1 uL of LiveBLAzerTM B/G FRET substrate was added using a Bioraptr Flying Reagent Dispenser (FRD) workstation (Beckman Coulter, Indianapolis, IN, USA), the plates were incubated at room temperature for 1 h, and fluorescence intensity was measured by an Envision plate reader (PerkinElmer, Shelton, CT).
# On the % scale 0 is the no-effect control and ±100 the full control effect; potency means the concentration at half of the fitted maximal effect.
row,SMILES,Potency
1,CP(=O)(O)OCCC[Si](O)(O)O,inconclusive: 6.92 µM
2,Cc1cccc([N+](=O)[O-])c1[N+](=O)[O-],inconclusive: 32.5 µM

# Same assay, conditions: HEK293H PPARg-UAS-bla, beta-lactamase ratio, antagonist, 17 h; at 62.6 µM (top of the series)
row,SMILES,"ratio activity, negative = inhibition"
1,OCCSCCO,inconclusive: 8.85%
2,Cc1c([N+](=O)[O-])cccc1[N+](=O)[O-],inconclusive: 12.7%
3,O=[N+]([O-])[O-].[NH4+],inconclusive: 2.04% and inconclusive: 10.5%
4,CC(C)N(CCO)C(C)C,inconclusive: -15.1%
5,Cc1ccc([N+](=O)[O-])cc1[N+](=O)[O-],inconclusive: 11.7%

# Same assay, conditions: HEK293H PPARg-UAS-bla, beta-lactamase ratio, antagonist, 17 h; at 81.1 µM (top of the series)
row,SMILES,"ratio activity, negative = inhibition"
1,OCCSCCO,inconclusive: 11.8%
2,Cc1ccc([N+](=O)[O-])c([N+](=O)[O-])c1,inconclusive: 11.9%
3,N=C(N)N[N+](=O)[O-],inconclusive: 17.7%
4,O=[N+]([O-])c1cccc([N+](=O)[O-])c1,inconclusive: -26.2%
